Experimental data as given in the supplement of paper PMC10849652.
The list shows a part of the results.

The chains behind the UniProt entries cited, without tags or fusion partners. Where a name states a change or a piece, a line headed by the entry shows the natural chain unless it says otherwise.
UniProt Q96S82: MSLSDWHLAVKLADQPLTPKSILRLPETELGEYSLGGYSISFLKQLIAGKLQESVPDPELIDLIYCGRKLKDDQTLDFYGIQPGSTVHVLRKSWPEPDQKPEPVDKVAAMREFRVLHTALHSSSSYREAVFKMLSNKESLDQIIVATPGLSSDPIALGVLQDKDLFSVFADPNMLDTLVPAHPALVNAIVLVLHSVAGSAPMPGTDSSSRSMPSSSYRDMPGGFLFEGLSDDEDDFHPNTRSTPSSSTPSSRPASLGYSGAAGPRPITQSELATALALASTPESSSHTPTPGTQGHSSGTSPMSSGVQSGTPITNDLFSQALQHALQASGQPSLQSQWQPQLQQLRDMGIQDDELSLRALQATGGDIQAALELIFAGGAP
UniProt P11441: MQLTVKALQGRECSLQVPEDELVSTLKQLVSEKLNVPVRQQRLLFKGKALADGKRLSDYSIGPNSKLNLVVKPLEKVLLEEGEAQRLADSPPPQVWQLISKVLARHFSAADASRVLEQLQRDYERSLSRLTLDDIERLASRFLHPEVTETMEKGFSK
UniProt Q9HAU5: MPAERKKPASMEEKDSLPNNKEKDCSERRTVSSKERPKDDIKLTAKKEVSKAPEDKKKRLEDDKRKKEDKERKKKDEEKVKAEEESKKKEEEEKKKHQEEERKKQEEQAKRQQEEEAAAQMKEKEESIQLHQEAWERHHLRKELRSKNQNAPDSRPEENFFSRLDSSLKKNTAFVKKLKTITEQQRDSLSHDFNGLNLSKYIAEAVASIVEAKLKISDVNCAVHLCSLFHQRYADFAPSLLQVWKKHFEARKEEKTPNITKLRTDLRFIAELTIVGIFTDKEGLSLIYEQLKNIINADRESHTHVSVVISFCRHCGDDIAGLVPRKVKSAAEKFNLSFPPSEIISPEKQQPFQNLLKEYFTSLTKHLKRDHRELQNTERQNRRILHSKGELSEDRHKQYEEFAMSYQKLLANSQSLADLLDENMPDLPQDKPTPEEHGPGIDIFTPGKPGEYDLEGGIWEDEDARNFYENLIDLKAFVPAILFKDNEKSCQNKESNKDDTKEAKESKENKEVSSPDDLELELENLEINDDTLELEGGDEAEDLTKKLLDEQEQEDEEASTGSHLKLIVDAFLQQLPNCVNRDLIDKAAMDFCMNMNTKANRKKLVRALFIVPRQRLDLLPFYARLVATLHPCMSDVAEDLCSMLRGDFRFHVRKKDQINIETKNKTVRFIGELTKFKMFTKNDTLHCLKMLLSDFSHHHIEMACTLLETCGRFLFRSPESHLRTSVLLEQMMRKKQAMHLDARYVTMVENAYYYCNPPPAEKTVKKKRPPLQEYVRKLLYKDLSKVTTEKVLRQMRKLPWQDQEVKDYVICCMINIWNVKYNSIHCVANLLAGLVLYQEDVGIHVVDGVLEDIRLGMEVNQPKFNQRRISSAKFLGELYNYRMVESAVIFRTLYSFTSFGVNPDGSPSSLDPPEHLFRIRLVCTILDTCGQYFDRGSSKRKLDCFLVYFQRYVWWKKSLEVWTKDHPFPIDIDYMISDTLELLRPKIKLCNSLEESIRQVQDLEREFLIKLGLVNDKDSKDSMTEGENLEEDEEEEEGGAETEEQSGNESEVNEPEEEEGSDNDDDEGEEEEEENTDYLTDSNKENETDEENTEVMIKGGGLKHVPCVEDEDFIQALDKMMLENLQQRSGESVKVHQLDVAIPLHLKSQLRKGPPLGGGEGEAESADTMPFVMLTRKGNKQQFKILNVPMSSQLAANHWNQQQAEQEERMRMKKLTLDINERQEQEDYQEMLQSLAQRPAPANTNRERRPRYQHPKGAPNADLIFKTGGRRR
UniProt O95071: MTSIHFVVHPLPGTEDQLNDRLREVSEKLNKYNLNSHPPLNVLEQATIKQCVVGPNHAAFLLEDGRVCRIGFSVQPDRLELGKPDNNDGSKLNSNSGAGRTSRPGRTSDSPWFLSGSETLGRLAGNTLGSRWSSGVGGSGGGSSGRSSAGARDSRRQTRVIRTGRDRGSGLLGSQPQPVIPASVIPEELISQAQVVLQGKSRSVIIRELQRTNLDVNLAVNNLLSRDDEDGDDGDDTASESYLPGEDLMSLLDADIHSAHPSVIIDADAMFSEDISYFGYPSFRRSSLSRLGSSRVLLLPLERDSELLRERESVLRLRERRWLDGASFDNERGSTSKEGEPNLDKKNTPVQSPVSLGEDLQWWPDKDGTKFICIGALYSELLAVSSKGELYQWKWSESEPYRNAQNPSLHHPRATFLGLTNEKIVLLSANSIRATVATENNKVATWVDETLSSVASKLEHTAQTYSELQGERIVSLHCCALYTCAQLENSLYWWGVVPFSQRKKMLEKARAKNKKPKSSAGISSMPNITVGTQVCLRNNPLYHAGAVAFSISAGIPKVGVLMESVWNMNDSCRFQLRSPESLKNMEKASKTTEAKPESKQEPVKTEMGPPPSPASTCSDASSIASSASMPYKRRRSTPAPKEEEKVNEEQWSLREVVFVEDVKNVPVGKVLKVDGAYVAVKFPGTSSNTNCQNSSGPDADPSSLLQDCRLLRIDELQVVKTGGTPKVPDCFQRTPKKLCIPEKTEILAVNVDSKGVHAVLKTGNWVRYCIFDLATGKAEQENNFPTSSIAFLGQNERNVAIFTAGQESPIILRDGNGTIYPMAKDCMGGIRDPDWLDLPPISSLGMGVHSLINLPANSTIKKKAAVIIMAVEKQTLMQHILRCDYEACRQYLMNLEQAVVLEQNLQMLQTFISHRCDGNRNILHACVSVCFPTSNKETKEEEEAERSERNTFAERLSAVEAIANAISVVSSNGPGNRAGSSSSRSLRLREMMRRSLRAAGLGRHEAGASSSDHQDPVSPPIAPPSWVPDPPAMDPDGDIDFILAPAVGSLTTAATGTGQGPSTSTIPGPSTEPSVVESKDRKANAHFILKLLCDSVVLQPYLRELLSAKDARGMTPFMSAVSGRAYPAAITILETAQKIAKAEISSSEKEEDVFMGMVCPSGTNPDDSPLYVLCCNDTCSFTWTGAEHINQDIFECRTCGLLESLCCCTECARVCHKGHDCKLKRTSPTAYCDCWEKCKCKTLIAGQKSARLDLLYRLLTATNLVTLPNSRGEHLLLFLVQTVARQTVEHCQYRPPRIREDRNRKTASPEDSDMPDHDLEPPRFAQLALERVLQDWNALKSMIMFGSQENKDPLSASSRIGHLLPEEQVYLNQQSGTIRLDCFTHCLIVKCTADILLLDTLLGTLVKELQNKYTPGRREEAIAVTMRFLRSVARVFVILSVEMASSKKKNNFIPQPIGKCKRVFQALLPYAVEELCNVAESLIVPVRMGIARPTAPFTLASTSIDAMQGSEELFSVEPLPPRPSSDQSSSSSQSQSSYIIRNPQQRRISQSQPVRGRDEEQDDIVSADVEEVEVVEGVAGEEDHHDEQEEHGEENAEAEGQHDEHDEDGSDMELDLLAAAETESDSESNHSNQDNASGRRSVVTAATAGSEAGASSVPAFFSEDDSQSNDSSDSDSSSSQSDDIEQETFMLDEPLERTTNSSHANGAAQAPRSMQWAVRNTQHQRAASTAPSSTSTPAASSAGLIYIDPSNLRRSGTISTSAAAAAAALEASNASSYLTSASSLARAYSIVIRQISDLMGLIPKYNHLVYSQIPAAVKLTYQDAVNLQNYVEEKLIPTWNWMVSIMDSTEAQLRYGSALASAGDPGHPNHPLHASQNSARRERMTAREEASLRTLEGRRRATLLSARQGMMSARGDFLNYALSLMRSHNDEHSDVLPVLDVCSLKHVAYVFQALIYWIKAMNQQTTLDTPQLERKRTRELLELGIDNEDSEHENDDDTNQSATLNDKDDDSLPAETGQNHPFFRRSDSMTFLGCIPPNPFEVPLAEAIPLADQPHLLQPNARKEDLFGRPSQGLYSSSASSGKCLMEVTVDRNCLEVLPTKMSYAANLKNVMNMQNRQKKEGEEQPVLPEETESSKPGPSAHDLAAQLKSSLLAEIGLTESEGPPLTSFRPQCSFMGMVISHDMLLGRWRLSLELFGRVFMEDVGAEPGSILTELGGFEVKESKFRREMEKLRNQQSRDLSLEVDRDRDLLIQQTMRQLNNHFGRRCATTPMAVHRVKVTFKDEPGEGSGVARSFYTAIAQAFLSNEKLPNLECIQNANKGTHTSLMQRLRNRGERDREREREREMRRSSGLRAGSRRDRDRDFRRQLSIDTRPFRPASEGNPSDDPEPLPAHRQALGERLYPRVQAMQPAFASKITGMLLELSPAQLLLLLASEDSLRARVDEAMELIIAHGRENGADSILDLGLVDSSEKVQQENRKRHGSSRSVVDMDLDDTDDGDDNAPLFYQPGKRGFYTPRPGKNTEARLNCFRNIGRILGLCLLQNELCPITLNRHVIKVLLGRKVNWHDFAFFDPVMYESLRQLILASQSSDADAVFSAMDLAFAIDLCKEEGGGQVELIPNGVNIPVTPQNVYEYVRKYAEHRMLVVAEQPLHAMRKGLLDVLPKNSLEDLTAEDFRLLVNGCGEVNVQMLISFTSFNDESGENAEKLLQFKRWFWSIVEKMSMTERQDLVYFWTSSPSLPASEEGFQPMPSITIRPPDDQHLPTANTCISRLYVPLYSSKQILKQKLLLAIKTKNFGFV
UniProt O14949: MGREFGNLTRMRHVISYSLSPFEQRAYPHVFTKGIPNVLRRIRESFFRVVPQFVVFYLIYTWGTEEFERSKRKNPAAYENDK
UniProt O75379: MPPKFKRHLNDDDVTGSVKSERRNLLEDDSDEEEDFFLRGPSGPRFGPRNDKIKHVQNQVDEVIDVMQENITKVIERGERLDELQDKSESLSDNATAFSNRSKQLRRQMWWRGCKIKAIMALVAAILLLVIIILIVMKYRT
UniProt Q9BV40: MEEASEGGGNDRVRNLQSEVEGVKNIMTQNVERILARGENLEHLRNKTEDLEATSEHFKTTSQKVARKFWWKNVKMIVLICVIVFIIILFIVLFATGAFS
UniProt Q16880: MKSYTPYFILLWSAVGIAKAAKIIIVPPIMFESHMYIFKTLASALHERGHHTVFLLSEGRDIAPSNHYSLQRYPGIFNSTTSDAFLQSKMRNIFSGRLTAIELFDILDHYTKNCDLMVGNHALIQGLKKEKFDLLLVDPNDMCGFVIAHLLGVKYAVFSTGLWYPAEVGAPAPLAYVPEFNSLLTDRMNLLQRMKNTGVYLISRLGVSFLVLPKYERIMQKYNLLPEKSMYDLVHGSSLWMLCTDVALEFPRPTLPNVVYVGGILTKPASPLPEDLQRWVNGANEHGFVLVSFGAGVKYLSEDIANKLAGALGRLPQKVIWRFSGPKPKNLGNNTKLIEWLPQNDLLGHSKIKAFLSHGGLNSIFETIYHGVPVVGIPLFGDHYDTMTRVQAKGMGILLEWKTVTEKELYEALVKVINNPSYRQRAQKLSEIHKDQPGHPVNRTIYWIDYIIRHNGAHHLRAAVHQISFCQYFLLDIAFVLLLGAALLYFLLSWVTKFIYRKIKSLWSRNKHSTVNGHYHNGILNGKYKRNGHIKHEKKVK
UniProt Q9UHD9, whole entry, looked up: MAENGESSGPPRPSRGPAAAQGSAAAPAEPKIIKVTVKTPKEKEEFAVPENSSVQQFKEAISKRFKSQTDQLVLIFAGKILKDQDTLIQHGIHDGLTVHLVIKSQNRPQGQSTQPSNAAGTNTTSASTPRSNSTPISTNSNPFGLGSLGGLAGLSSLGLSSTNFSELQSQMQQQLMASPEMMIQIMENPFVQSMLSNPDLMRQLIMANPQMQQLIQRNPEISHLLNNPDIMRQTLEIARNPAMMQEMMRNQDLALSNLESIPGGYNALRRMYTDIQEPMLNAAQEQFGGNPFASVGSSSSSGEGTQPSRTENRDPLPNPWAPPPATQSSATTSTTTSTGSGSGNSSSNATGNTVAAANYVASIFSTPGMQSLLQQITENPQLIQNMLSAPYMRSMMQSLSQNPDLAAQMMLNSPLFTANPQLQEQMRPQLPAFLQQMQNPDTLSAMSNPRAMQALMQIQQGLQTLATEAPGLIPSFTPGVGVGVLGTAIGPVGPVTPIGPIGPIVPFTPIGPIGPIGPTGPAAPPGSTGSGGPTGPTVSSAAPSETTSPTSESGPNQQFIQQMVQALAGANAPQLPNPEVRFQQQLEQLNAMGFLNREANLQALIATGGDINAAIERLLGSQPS
UniProt Q8N806: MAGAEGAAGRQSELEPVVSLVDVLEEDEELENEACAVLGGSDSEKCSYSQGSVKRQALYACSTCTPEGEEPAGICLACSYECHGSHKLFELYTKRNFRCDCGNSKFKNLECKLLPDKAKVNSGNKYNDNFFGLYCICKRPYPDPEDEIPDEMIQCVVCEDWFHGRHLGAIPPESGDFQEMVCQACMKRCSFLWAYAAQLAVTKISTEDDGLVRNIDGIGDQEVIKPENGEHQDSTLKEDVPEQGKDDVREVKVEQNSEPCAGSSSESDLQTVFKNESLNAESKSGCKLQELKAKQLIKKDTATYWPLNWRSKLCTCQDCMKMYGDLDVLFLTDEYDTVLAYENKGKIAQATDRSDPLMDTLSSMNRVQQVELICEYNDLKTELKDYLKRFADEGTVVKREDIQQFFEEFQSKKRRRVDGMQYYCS

Columns and labels:
Experiment in all cases: log2 fold change, soluble protein after heating vs DMSO (PISA); higher = thermal stabilisation; K562 cells, 10 uM, 30 min; active = over 0.2 and 3.5 SD of the protein, either way, in both replicates (recomputed)
[1] = compound: COC1=CC=C(C=C1)CN2C=CC3=C2C=C(C=C3)C(=O)NO
In short: (§1)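 Soluble protein was quantified by TMTpro 16plex LC-MS/MS after channel sums were equalised. It was obtained as the supernatant after 21,000xg for 90 min from pooled aliquots of K562 cells (2×10^6 cells/mL, 10 μM compound, 30 min) heated for 3 min across 48°C-58°C and extracted in PBS with 0.5% NP-40 at 4°C. Thermal stability values are relative to control samples and come from duplicates. They are given as log2 fold changes.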

[2] = compound: CON(C)C(=O)N1N=C(c2cc(F)ccc2F)S[C@@]1(CCCN)c1ccccc1 [filanesib]
In short: as §1

[3] = compound: CO[C@H]1C[C@@H]2CC[C@@H](C)[C@@](O)(O2)C(=O)C(=O)N2CCCC[C@H]2C(=O)O[C@H]([C@H](C)C[C@@H]2CC[C@H](n3cnnn3)[C@H](OC)C2)CC(=O)[C@H](C)/C=C(\C)[C@@H](O)[C@@H](OC)C(=O)[C@H](C)C[C@H](C)/C=C/C=C/C=C/1C [zotarolimus]
In short: as §1

[4] = compound: COc1cc(C(=O)O)ccc1NC(=O)[C@@H]1N[C@@H](CC(C)(C)C)[C@](C#N)(c2ccc(Cl)cc2F)[C@H]1c1cccc(Cl)c1F [idasanutlin]
In short: as §1

[5] = compound: COc1cc(Nc2ncc3c(n2)-c2ccc(Cl)cc2C(c2c(F)cccc2OC)=NC3)ccc1C(=O)O [alisertib]
In short: as §1

[6] = compound: COc1cc2nc(-c3cc(F)ccc3O)nc(N[C@@H]3CNC[C@H]3C(C)(C)O)c2cc1OC
In short: as §1

[7] = compound: COc1cc2ncnc(Nc3ccc(F)c(Cl)c3)c2cc1OCCCN1CCOCC1 [gefitinib]
In short: as §1

[8] = compound: COc1cccc2cc(-c3nc([C@H]4CC[C@H](C(=O)O)CC4)n4ncnc(N)c34)[nH]c12
In short: as §1

[9] = compound: CS(=O)(=O)CCNCc1ccc(-c2ccc3ncnc(Nc4ccc(OCc5cccc(F)c5)c(Cl)c4)c3c2)o1 [lapatinib]
In short: as §1

[10] = compound: CS(=O)(=O)N1CCN(Cc2cc3nc(-c4cccc5[nH]ncc45)nc(N4CCOCC4)c3s2)CC1 [pictilisib]
In short: as §1

[11] = compound: CS(=O)(=O)c1ccc(-c2cnc(N)c(C(=O)Nc3ccccc3)n2)cc1
In short: as §1

[12] = compound: C[C@@H](Oc1cc(-c2cnn(C3CCNCC3)c2)cnc1N)c1c(Cl)ccc(F)c1Cl [crizotinib]
In short: as §1

[13] = compound: C[C@@H]1COCCN1C2=NC(=NC(=C2)C3(CC3)S(=O)(=O)C)C4=C5C=CNC5=CC=C4
In short: as §1

[14] = compound: C[C@H](C1=CC=C(C=C1)C(=O)NC2=C3C=CNC3=NC=C2)N
In short: as §1

[15] = compound: C[C@H](Nc1ncnc2nc[nH]c12)c1cc2cccc(Cl)c2c(=O)n1-c1ccccc1 [duvelisib]
In short: as §1

[16] = compound: Cc1cc(Nc2cc(CN3CCOCC3)c3nc(C)c(Cc4ccc(Cl)cc4F)n3n2)n[nH]1 [gandotinib]
In short: as §1

[17] = compound: Cc1cc(Nc2cc(N3CCN(C)CC3)nc(Sc3ccc(NC(=O)C4CC4)cc3)n2)n[nH]1 [tozasertib]
In short: as §1

[18] = compound: Cc1cc(SCc2sc(-c3ccc(C(F)(F)F)cc3)nc2C)ccc1OCC(=O)O
In short: as §1

[19] = compound: Cc1ccc(-n2nc(C(C)(C)C)cc2NC(=O)Nc2ccc(OCCN3CCOCC3)c3ccccc23)cc1 [doramapimod]
In short: as §1

[20] = compound: Cc1ccc(C(=O)N(CCCN)[C@@H](c2nc3cc(Cl)ccc3c(=O)n2Cc2ccccc2)C(C)C)cc1 [ispinesib]
In short: as §1

Measured: log2 fold change

UPF1 (UniProt Q92900)
inactive: [1] 0 | [2] 0.015 | [3] 0.01 | [4] -0.016 | [5] -0.07 | [6] 0.099 | [7] -0.014 | [8] -0.045 | [9] -0.049 | [10] -0.024 | [11] -0.034 | [12] 0.046 | [13] -0.03 | [14] -0.001 | [15] 0.015 | [16] 0.006 | [17] 0.012 | [18] 0.022 | [19] -0.023 | [20] 0.021

UNC45A (UniProt Q9H3U1)
inactive: [1] 0.038 | [2] 0.069 | [3] 0.042 | [4] -0.024 | [5] -0.133 | [6] 0.041 | [7] 0.003 | [8] -0.197 | [9] -0.009 | [10] -0.006 | [11] -0.009 | [12] -0.104 | [13] -0.004 | [14] 0.149 | [15] -0.014 | [16] -0.068 | [17] 0.089 | [18] 0.16 | [19] 0.131 | [20] -0.1

UBFD1 (UniProt O14562)
inactive: [1] -0.011 | [2] -0.012 | [3] 0.018 | [4] -0.083 | [5] 0.016 | [6] 0.068 | [7] 0.027 | [8] 0.021 | [9] -0.03 | [10] 0.056 | [11] 0.026 | [12] -0.008 | [13] 0.026 | [14] -0.104 | [15] 0.017 | [16] -0.04 | [17] -0.002 | [18] 0.015 | [19] 0.023 | [20] 0.033

UBL7 (UniProt Q96S82)
inactive: [1] 0.012 | [2] 0.114 | [3] 0.047 | [4] 0 | [5] -0.048 | [6] -0.043 | [7] -0.027 | [8] 0.036 | [9] 0.016 | [10] -0.127 | [11] 0.004 | [12] -0.008 | [13] 0.24 | [14] -0.087 | [15] 0.098 | [16] 0.11 | [17] 0.001 | [18] 0.114 | [19] 0.036 | [20] -0.069

UBL4A (UniProt P11441)
inactive: [1] -0.07 | [2] 0.017 | [3] 0.039 | [4] 0.147 | [5] -0.011 | [6] -0.013 | [7] -0.029 | [8] 0.008 | [9] 0.021 | [10] 0.027 | [11] 0.03 | [12] 0.064 | [13] 0.062 | [14] -0.039 | [15] 0.034 | [16] -0.063 | [17] 0.081 | [18] 0.094 | [19] 0.017 | [20] -0.006

UPF2 (UniProt Q9HAU5)
inactive: [1] -0.037 | [2] 0.352 | [3] 0.051 | [4] 0.128 | [5] 0 | [6] 0.105 | [7] 0.008 | [8] -0.159 | [9] 0.059 | [10] -0.023 | [11] -0.034 | [12] 0.018 | [13] -0.299 | [14] 0.327 | [15] -0.13 | [16] 0.054 | [17] 0.052 | [18] 0.083 | [19] 0.182 | [20] -0.11

UBR5 (UniProt O95071)
inactive: [1] -0.001 | [2] 0.138 | [3] 0.011 | [4] 0.072 | [5] 0.007 | [6] -0.029 | [7] -0.049 | [8] -0.05 | [9] 0.069 | [10] -0.008 | [11] -0.023 | [12] 0.017 | [13] -0.018 | [14] 0.069 | [15] -0.052 | [16] 0 | [17] 0.222 | [18] 0.046 | [19] 0.036 | [20] -0.045

Quoted from the entries so far (2 entries):
UPF2 (UniProt Q9HAU5)
inactive: [1] -0.037 | [2] 0.352 | [3] 0.051 | [4] 0.128 | [5] 0 | [6] 0.105 | [7] 0.008 | [8] -0.159 | [9] 0.059 | [10] -0.023 | [11] -0.034 | [12] 0.018 | [13] -0.299 | [14] 0.327 | [15] -0.13 | [16] 0.054 | [17] 0.052 | [18] 0.083 | [19] 0.182 | [20] -0.11

UBR5 (UniProt O95071)
inactive: [1] -0.001 | [2] 0.138 | [3] 0.011 | [4] 0.072 | [5] 0.007 | [6] -0.029 | [7] -0.049 | [8] -0.05 | [9] 0.069 | [10] -0.008 | [11] -0.023 | [12] 0.017 | [13] -0.018 | [14] 0.069 | [15] -0.052 | [16] 0 | [17] 0.222 | [18] 0.046 | [19] 0.036 | [20] -0.045

Next part

UQCRQ (UniProt O14949)
inactive: [1] -0.008 | [2] -0.033 | [3] -0.027 | [4] -0.012 | [5] -0.136 | [6] -0.027 | [7] 0.004 | [8] 0.065 | [9] 0 | [10] 0.081 | [11] 0.035 | [12] 0.079 | [13] -0.058 | [14] -0.071 | [15] -0.018 | [16] 0.068 | [17] -0.02 | [18] 0.023 | [19] -0.03 | [20] 0.015

VAMP4 (UniProt O75379)
inactive: [1] -0.055 | [2] -0.013 | [3] -0.04 | [4] 0 | [5] -0.071 | [6] 0.077 | [7] 0.026 | [8] 0.053 | [9] -0.013 | [10] 0.084 | [11] 0.026 | [12] -0.142 | [13] -0.189 | [14] -0.055 | [15] -0.018 | [16] 0.044 | [17] -0.018 | [18] -0.051 | [19] 0.059 | [20] -0.202

VAMP8 (UniProt Q9BV40)
inactive: [1] -0.048 | [2] -0.082 | [3] -0.004 | [4] -0.01 | [5] -0.01 | [6] -0.059 | [7] 0.008 | [8] 0.044 | [9] -0.017 | [10] 0.026 | [11] 0.022 | [12] 0.026 | [13] 0.094 | [14] -0.076 | [15] 0.038 | [16] 0.067 | [17] -0.039 | [18] -0.05 | [19] -0.046 | [20] -0.141

UGT8 (UniProt Q16880)
inactive: [1] -0.069 | [2] 0.268 | [3] 0.235 | [4] 0.087 | [5] -0.031 | [6] 0.018 | [7] 0.058 | [8] -0.042 | [9] 0.317 | [10] -0.026 | [11] 0.168 | [12] 0.234 | [13] 0.019 | [14] 0.024 | [15] 0.114 | [16] 0.068 | [17] -0.061 | [18] -0.08 | [19] 0.084 | [20] -0.048

UCHL3 (UniProt P15374)
inactive: [1] 0.003 | [2] -0.038 | [3] 0.077 | [4] -0.063 | [5] -0.094 | [6] -0.013 | [7] -0.011 | [8] 0.044 | [9] 0.037 | [10] 0.026 | [11] 0.005 | [12] 0.041 | [13] 0.174 | [14] -0.053 | [15] 0.028 | [16] 0.011 | [17] 0.082 | [18] 0.064 | [19] 0.009 | [20] 0.058

UBQLN2 (UniProt Q9UHD9)
inactive: [1] 0.009 | [2] -0.078 | [3] 0.039 | [4] -0.043 | [5] -0.065 | [6] -0.081 | [7] 0.013 | [8] 0.084 | [9] 0.073 | [10] -0.104 | [11] -0.02 | [12] 0.061 | [13] 0.127 | [14] -0.109 | [15] -0.025 | [16] 0.012 | [17] 0.088 | [18] -0.032 | [19] 0.003 | [20] 0.053

UBXN4 (UniProt Q92575)
inactive: [1] -0.027 | [2] -0.045 | [3] -0.061 | [4] -0.077 | [5] 0.009 | [6] 0.072 | [7] 0.019 | [8] 0.055 | [9] 0.013 | [10] 0.067 | [11] 0.031 | [12] 0.017 | [13] 0.042 | [14] 0.12 | [15] 0.054 | [16] -0.053 | [17] -0.012 | [18] -0.019 | [19] 0.02 | [20] -0.022

UBR7 (UniProt Q8N806)
inactive: [1] 0 | [2] 0.18 | [3] 0.002 | [4] 0.003 | [5] -0.031 | [6] 0.046 | [7] -0.011 | [8] -0.018 | [9] 0.019 | [10] 0.025 | [11] -0.017 | [12] -0.014 | [13] -0.015 | [14] -0.098 | [15] 0.037 | [16] 0.006 | [17] 0.026 | [18] 0.046 | [19] -0.04 | [20] 0.131

UROD (UniProt P06132)
inactive: [1] 0.048 | [2] 0.007 | [3] -0.015 | [4] 0.013 | [5] -0.125 | [6] -0.073 | [7] -0.021 | [8] 0.016 | [9] 0.044 | [10] -0.026 | [11] 0.119 | [12] -0.008 | [13] 0.022 | [14] -0.017 | [15] 0 | [16] 0.03 | [17] -0.042 | [18] -0.06 | [19] 0.027 | [20] -0.011
